# Measured data: PubChem BioAssay AID686937 (Drosophila RNAi Screening Center, 2013)
# Purpose: 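Knock-downs that reduce output of a secreted reporter enzyme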 (primary screen)
# System: Drosophila S2 cells expressing secreted horseradish peroxidase
# Reagents: long dsRNA against Drosophila genes
# Timing: about 5.5 days (5 days dsRNA, then 12 h reporter induction)
# Conditions: reporter expression induced after 5 days of dsRNA, read 12 h later; inducer not stated
# Measurement: 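After 5 days of dsRNA and 12 h of reporter induction, medium peroxidase read by chemiluminescence and scored as per-plate z-score; higher values mean more reporter released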
# Scale: z-score: higher = more reporter secreted into medium
# The screen tested about 23,000 reagents; this is a random part of those that have a named target and a result. 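Reduced-secretion tags in replicate 1 do not always agree with the z-scores; no criterion for assigning the tags was given.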 The numbers tell different reagents against one gene apart. Names joined by + are all predicted targets of the reagent. Further read-outs or replicates are left out here. Not given: the amount of reagent.
The opening 4 records, to show the layout:
Gene,reagent,"z-score, replicate 1","z-score, replicate 2","z-score, replicate 3","z-score, replicate 4"
Rbp4,1,0.38,0.6,,
Lipt1 + CG42837,1,0.46,0.59,,
mRpS7,1,0.11,0.12,,
CG5254,1,0.38,0.34,,

The listing, repeating the preview:
Gene,reagent,"z-score, replicate 1","z-score, replicate 2","z-score, replicate 3","z-score, replicate 4"
Rbp4,1,0.38,0.6,,
Lipt1 + CG42837,1,0.46,0.59,,
mRpS7,1,0.11,0.12,,
CG5254,1,0.38,0.34,,
GEFmeso,1,0.27,0.36,,
GEFmeso,2,0.48,0.42,,
GEFmeso,3,-0.03,-0.64,,
CG14490,1,0.15,0,,
CG4291,1,0.15,0.48,,
Cyp313b1,1,0.36,0.27,,
Nf-YC,1,-4.52,-2.43,,
Tace,1,0.57,0.65,,
Mical,1,0.2,-0.55,,
Mical,2,0.56,0.38,,
Mical,3,0.42,0.22,,
Mical,4,0.52,0.8,,
Cyp313a3,1,0.3,0.32,,
Lim1,1,0.4,0.7,,
Lim1,2,-0.1,0.15,0.28,0.09
Esyt2,1,0.29,0.19,,
Ssl2,1,0.34,0.52,,
Ssl2,2,0.11,-0.14,,
ppk19,1,0.31,0.36,,
CG42850 (retired record),1,-1.64,-1.01,,
Golgin245,1,0.16,0.25,,
Golgin245,2,0.43,-5.41,,
Kdm2,1,0.22,0.63,,
CG4866,1,0.32,0.42,,
Tango14,1,-1.75,-1.29,,
CG17780 + CG17781,1,0.12,0.16,,
CG7512,1,0.32,0.14,,
AttC,1,0.27,0.27,,
CG14309,1,0.37,0.51,,
